No constants are given. Whether binding was seen depends on the method and setting. Binding calls can cover weak binding; strength is not graded here. Tags and fused reporters may be left off the sequences shown.
Target: yeast dynein^DK (open mutant that cannot adopt the phi conformation) (S. cerevisiae)
Experiment: TIRF microscopy microtubule recruitment assay; yeast proteins; dynein on taxol-stabilised microtubules held by anti-tubulin antibody; fluorescent partner flowed in, TEV buffer with 1 mM DTT, 5-10 min; intensity along microtubules; both purified

B1: full-length yeast Ndl1 with C-terminal FLAG-SNAPf (protein, UniProt Q06568 1-189)
chain: MVPNLDLETAIQIISSLETQLSELEGATKEYENDLEQVISKLKSDLLESQQQNKCNKKQITDLEIQVDELENENIQLRNKIETLQLESDRRLERNVLLEHELLDTKEALQKLRVSKEEATSGETRRNTRSLPSQNKKMKLFKDTIKVSTTSSTLYLQNMAKTNNAARSHCNIPNTQITQSTVIATTSSV
modifications: JFX554-SNAP or JFX650-SNAP ligand on the SNAPf tag
B1 was tested, and the binding was “binds”.
